{"source": "PubChem BioAssay AID743121 (NCATS, 2013)", "screen": "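Knock-downs that sensitise breast cancer cells to camptothecin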 (primary screen)", "cells": "MDA-MB-231 cells, a human breast cancer line", "reagent": "single siRNA against human genes, 20 nM siRNA (0.8 pmol per well)", "timing": "120 h (drug added 48 h after transfection, read 72 h later)", "treatment": "camptothecin 20 nM (about EC30) for 72 h; vehicle 0.1% DMSO in parallel plates", "read-out": "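CellTiter-Glo ATP signal, scaled to control siRNA as percent viability; sensitisation given as log2 of untreated divided by camptothecin-treated viability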", "scale": "log2 vehicle/camptothecin viability: higher = stronger sensitisation to camptothecin; viability with camptothecin: higher = more viable cells", "units": "viability with camptothecin in % of control", "call rule": "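Each gene scored by redundant siRNA activity (RSA) over its individual siRNA ratios; a gene is called active at p < 0.001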", "note": "The whole screen tested about 26,000 reagents; below is a random part of them. In the full data, 167 (0.63%) got an active call. 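Calls are per gene from RSA p-values that are not deposited; an individual active-marked siRNA can sensitise only weakly.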 Reagents against one gene are numbered here. Not all columns of the deposit are shown."}
{"Target gene": "CHRM4", "reagent": 1, "log2 vehicle/camptothecin viability": -0.186, "viability with camptothecin": 99.1, "outcome": "inactive"}
{"Target gene": "CHRM4", "reagent": 2, "log2 vehicle/camptothecin viability": -0.485, "viability with camptothecin": 57.2, "outcome": "inactive"}
{"Target gene": "CHRM4", "reagent": 3, "log2 vehicle/camptothecin viability": -0.539, "viability with camptothecin": 60.8, "outcome": "inactive"}
{"Target gene": "CHRM4", "reagent": 4, "log2 vehicle/camptothecin viability": -0.078, "viability with camptothecin": 105, "outcome": "inactive"}
{"Target gene": "CRIPTO", "reagent": 1, "log2 vehicle/camptothecin viability": -0.385, "viability with camptothecin": 59, "outcome": "inactive"}
{"Target gene": "CRIPTO", "reagent": 2, "log2 vehicle/camptothecin viability": -0.118, "viability with camptothecin": 108, "outcome": "inactive"}
{"Target gene": "CRIPTO", "reagent": 3, "log2 vehicle/camptothecin viability": -0.077, "viability with camptothecin": 106, "outcome": "inactive"}
{"Target gene": "GNG11", "reagent": 1, "log2 vehicle/camptothecin viability": -0.309, "viability with camptothecin": 50.8, "outcome": "inactive"}
{"Target gene": "GNG11", "reagent": 2, "log2 vehicle/camptothecin viability": 0.00552, "viability with camptothecin": 84.6, "outcome": "inactive"}
{"Target gene": "GNG11", "reagent": 3, "log2 vehicle/camptothecin viability": 0.0791, "viability with camptothecin": 66.7, "outcome": "inactive"}
{"Target gene": "GNG11", "reagent": 4, "log2 vehicle/camptothecin viability": -0.151, "viability with camptothecin": 36.1, "outcome": "inactive"}
{"Target gene": "LAP3", "reagent": 1, "log2 vehicle/camptothecin viability": -0.0393, "viability with camptothecin": 14.7, "outcome": "inactive"}
{"Target gene": "LAP3", "reagent": 2, "log2 vehicle/camptothecin viability": -0.212, "viability with camptothecin": 64.7, "outcome": "inactive"}
{"Target gene": "LAP3", "reagent": 3, "log2 vehicle/camptothecin viability": -0.159, "viability with camptothecin": 106, "outcome": "inactive"}
{"Target gene": "HTR3C", "reagent": 1, "log2 vehicle/camptothecin viability": 0.00125, "viability with camptothecin": 62.6, "outcome": "inactive"}
{"Target gene": "HTR3C", "reagent": 2, "log2 vehicle/camptothecin viability": -0.0472, "viability with camptothecin": 85.8, "outcome": "inactive"}
{"Target gene": "HTR3C", "reagent": 3, "log2 vehicle/camptothecin viability": -0.0965, "viability with camptothecin": 105, "outcome": "inactive"}

6 entries from above, reformatted:
GNG11 #1
- log2 vehicle/camptothecin viability: -0.309
- viability with camptothecin: 50.8
- outcome: inactive

GNG11 #2
- log2 vehicle/camptothecin viability: 0.00552
- viability with camptothecin: 84.6
- outcome: inactive

GNG11 #3
- log2 vehicle/camptothecin viability: 0.0791
- viability with camptothecin: 66.7
- outcome: inactive

GNG11 #4
- log2 vehicle/camptothecin viability: -0.151
- viability with camptothecin: 36.1
- outcome: inactive

LAP3 #1
- log2 vehicle/camptothecin viability: -0.0393
- viability with camptothecin: 14.7
- outcome: inactive

LAP3 #2
- log2 vehicle/camptothecin viability: -0.212
- viability with camptothecin: 64.7
- outcome: inactive

Next results follow:
{"Target gene": "FBXO17", "reagent": 1, "log2 vehicle/camptothecin viability": 0.725, "viability with camptothecin": 23.8, "outcome": "inactive"}
{"Target gene": "FBXO17", "reagent": 2, "log2 vehicle/camptothecin viability": -0.219, "viability with camptothecin": 81.3, "outcome": "inactive"}
{"Target gene": "FBXO17", "reagent": 3, "log2 vehicle/camptothecin viability": -0.0674, "viability with camptothecin": 79.3, "outcome": "inactive"}
{"Target gene": "FBXO17", "reagent": 4, "log2 vehicle/camptothecin viability": 0.25, "viability with camptothecin": 95.8, "outcome": "inactive"}
{"Target gene": "GUCY1B1", "reagent": 1, "log2 vehicle/camptothecin viability": -0.121, "viability with camptothecin": 83, "outcome": "inactive"}
{"Target gene": "GUCY1B1", "reagent": 2, "log2 vehicle/camptothecin viability": -0.0943, "viability with camptothecin": 56.2, "outcome": "inactive"}
{"Target gene": "GUCY1B1", "reagent": 3, "log2 vehicle/camptothecin viability": -0.545, "viability with camptothecin": 101, "outcome": "inactive"}
{"Target gene": "GUCY1B1", "reagent": 4, "log2 vehicle/camptothecin viability": 0.189, "viability with camptothecin": 70.9, "outcome": "inactive"}
{"Target gene": "MBD2", "reagent": 1, "log2 vehicle/camptothecin viability": 0.0904, "viability with camptothecin": 77.8, "outcome": "inactive"}
{"Target gene": "MBD2", "reagent": 2, "log2 vehicle/camptothecin viability": -0.158, "viability with camptothecin": 87.3, "outcome": "inactive"}
{"Target gene": "MBD2", "reagent": 3, "log2 vehicle/camptothecin viability": -0.174, "viability with camptothecin": 114, "outcome": "inactive"}
{"Target gene": "MBD2", "reagent": 4, "log2 vehicle/camptothecin viability": 0.311, "viability with camptothecin": 42.6, "outcome": "inactive"}
{"Target gene": "POLR2C", "reagent": 1, "log2 vehicle/camptothecin viability": -0.398, "viability with camptothecin": 55.5, "outcome": "inactive"}
{"Target gene": "POLR2C", "reagent": 2, "log2 vehicle/camptothecin viability": -0.279, "viability with camptothecin": 34.2, "outcome": "inactive"}
{"Target gene": "POLR2C", "reagent": 3, "log2 vehicle/camptothecin viability": -0.412, "viability with camptothecin": 20.8, "outcome": "inactive"}
{"Target gene": "POLR2C", "reagent": 4, "log2 vehicle/camptothecin viability": -0.466, "viability with camptothecin": 21.2, "outcome": "inactive"}
{"Target gene": "RTP4", "reagent": 1, "log2 vehicle/camptothecin viability": 0.178, "viability with camptothecin": 69.7, "outcome": "inactive"}
{"Target gene": "RTP4", "reagent": 2, "log2 vehicle/camptothecin viability": -0.179, "viability with camptothecin": 111, "outcome": "inactive"}
{"Target gene": "RTP4", "reagent": 3, "log2 vehicle/camptothecin viability": 0.172, "viability with camptothecin": 41.8, "outcome": "inactive"}
{"Target gene": "RTP4", "reagent": 4, "log2 vehicle/camptothecin viability": -0.203, "viability with camptothecin": 123, "outcome": "inactive"}
{"Target gene": "SERPINB7", "reagent": 1, "log2 vehicle/camptothecin viability": -0.0396, "viability with camptothecin": 108, "outcome": "inactive"}
{"Target gene": "SERPINB7", "reagent": 2, "log2 vehicle/camptothecin viability": -0.428, "viability with camptothecin": 63.8, "outcome": "inactive"}
{"Target gene": "SERPINB7", "reagent": 3, "log2 vehicle/camptothecin viability": 0.0365, "viability with camptothecin": 80.1, "outcome": "inactive"}
{"Target gene": "SERPINB7", "reagent": 4, "log2 vehicle/camptothecin viability": 0.586, "viability with camptothecin": 30.8, "outcome": "inactive"}
{"Target gene": "CSF1", "reagent": 1, "log2 vehicle/camptothecin viability": 0.35, "viability with camptothecin": 59.8, "outcome": "inactive"}
{"Target gene": "CSF1", "reagent": 2, "log2 vehicle/camptothecin viability": -0.209, "viability with camptothecin": 57.9, "outcome": "inactive"}
{"Target gene": "CSF1", "reagent": 3, "log2 vehicle/camptothecin viability": -0.158, "viability with camptothecin": 81.2, "outcome": "inactive"}
{"Target gene": "CSF1", "reagent": 4, "log2 vehicle/camptothecin viability": -0.061, "viability with camptothecin": 66.3, "outcome": "inactive"}
